Measurements: PMC10887080

By UniProt entry, the sequences of proteins in these tests, tags left out. Where a name states a change or a piece, a line headed by the entry shows the natural chain unless it says otherwise. Residues count along the entry.
UniProt P07954, residues 45-510: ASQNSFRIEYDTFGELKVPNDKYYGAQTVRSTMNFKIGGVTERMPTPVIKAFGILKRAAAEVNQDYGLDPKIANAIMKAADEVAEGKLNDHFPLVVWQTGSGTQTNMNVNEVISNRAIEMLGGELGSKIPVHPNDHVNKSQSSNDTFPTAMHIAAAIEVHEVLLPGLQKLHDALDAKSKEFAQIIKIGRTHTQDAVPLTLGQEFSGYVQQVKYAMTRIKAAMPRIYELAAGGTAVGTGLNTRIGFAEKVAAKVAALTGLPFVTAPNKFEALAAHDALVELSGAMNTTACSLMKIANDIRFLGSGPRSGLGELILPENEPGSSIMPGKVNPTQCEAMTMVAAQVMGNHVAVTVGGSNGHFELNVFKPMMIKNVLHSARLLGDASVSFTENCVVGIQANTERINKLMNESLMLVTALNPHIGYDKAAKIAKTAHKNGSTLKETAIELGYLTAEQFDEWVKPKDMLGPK
UniProt Q8NBP7: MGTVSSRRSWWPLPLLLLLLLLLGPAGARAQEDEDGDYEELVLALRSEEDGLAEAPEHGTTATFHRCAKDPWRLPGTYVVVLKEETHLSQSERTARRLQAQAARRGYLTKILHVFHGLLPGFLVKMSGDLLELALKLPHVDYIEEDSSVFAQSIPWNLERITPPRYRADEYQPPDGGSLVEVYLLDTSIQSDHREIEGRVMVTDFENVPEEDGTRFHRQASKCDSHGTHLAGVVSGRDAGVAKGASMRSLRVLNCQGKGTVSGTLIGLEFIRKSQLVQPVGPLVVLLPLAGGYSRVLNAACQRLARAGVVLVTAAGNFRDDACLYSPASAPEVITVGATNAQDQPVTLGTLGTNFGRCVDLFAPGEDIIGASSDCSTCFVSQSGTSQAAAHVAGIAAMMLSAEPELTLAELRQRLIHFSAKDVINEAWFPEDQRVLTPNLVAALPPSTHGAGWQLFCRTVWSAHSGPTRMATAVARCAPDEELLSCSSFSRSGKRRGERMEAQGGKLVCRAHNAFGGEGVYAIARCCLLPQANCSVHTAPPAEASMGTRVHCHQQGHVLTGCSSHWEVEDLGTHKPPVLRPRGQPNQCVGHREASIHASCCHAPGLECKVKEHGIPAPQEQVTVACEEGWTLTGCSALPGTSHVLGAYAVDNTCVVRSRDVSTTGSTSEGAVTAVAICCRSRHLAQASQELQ

Target: Fumarate hydratase (human (endogenous in HCT116)) (UniProt P07954)
Assay: co-IP; HCT116 cells lysed in IP lysis buffer with phosphorylase inhibitor and PMSF; supernatant, antibody and protein A/G agarose beads overnight at 4 °C; immunoblot; also done in FH knockdown HCT116 cells (binding of Ran to SREBF1 and SREBF2 increased)

binding: no binding
Substance: protein invertase subtilisin/kexin 9 (from UniProt Q8NBP7)

These are yes or no findings as the source states them, for the method shown. Binding seen in cells or lysates may run through a third protein.
